# Values from PubChem BioAssay AID504786 (Drosophila RNAi Screening Center, 2011).
# Screen: 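Knock-downs reducing HIF reporter induction by the iron chelator DFO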 (primary screen)
# System: Drosophila S2 cells with a stable HIF luciferase reporter
# Knock-down reagent: long dsRNA against Drosophila genes, about 0.2 µg dsRNA per well of a 384-well plate
# Time to read-out: three days of knock-down, then 20 h of DFO before reading
# Treatment: desferrioxamine (DFO) at 100 µM, an iron chelator that mimics hypoxia, for 20 h
# Read-out: 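Firefly luciferase driven by the mouse ldh-a hypoxia-response element, measured after 20 h of 100 µM DFO; z-scores per plate, higher means more signal lost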
# Scale: z-score: higher = stronger loss of HIF reporter signal
# In all, the deposit lists about 21,000 reagents; below is an unselected part of those with a known target gene and a result. 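Primary screen; positive scores mean lost reporter signal, so the sign may be inverted from the usual convention.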
Gene,amplicon,"z-score, replicate 1","z-score, replicate 2","z-score, replicate 3","z-score, replicate 4"
Nrk,DRSC07480,-0.3,-0.3,,
Top3alpha,DRSC03460,-0.2,-0.4,,
Gmap,DRSC19988,-0.4,-0.5,,
Gmap,DRSC20057,-0.4,-0.3,,
Smu1,DRSC15803,0.3,0.9,,
Hrs,DRSC00549,-0.1,0.2,,
CG5466,DRSC15808,3.7,1.1,,
sturkopf,DRSC08637,-0.3,-0.4,,
CG15740,DRSC19706,2,2.8,,
ND-MLRQ,DRSC11913,1.1,0.9,,
C15,DRSC13495,0,-0.2,,
C15,DRSC14169,0.3,-0.5,,
Epac,DRSC04969,-0.8,-0.3,,
Epac,DRSC04996,-0.1,0.2,,
Epac,DRSC04997,-0.4,0.4,,
CG3339,DRSC13821,-0.1,-0.1,,
CG3339,DRSC15479,-0.4,-0.5,,
CG32055,DRSC10666,-0.2,-0.3,,
CG5455,DRSC15805,-0.4,-0.3,,
CG15773,DRSC18079,-0.3,-0.4,,
RhoGAP5A,DRSC18294,-0.4,0,,
Obp19a,DRSC20487,-0.1,0.1,,
Cyp4d21,DRSC03305,-0.3,-0.3,,
Ndc80,DRSC20221,-0.1,-0.2,,
nkd,DRSC11376,-0.2,-0.3,,
CG15482,DRSC02492,-0.2,-0.4,,
se,DRSC10713,-0.3,-0.2,,
CG7296,DRSC03042,-0.4,-0.8,-0.3,-0.5
Lrp4,DRSC20118,-0.4,-0.5,,
Snx17,DRSC02884,-0.3,-0.6,,
Prosalpha5,DRSC07514,-0.3,0.2,,
TBC1D23,DRSC00657,0.1,-0.3,,
CG12590,DRSC12216,-0.4,-0.3,,
Rgl,DRSC11267,-0.3,-0.2,,
Atg14,DRSC14421,-0.4,-0.2,,
CG2225,DRSC03722,-0.2,-0.1,,
CG2225,DRSC03723,-0.2,0.1,,
Cpr78Cc,DRSC11846,-0.2,-0.3,,
Hil,DRSC05989,-0.2,-0.4,,
Hil,DRSC06395,-0.4,-0.3,,
Hus1-like,DRSC12353,-0.4,-0.4,,
Mcm10,DRSC03162,-0.3,-0.1,,
pot,DRSC19850,-0.4,-0.6,,
Cpr50Ca,DRSC05454,-0.1,-0.2,,
Cpr50Ca,DRSC06372,-0.2,-0.5,,
Cpr50Ca,DRSC06375,0,-0.3,,
CG30047,DRSC05340,-0.2,-0.2,,
Ndfip,DRSC11201,-0.3,-0.5,,
Cyt-c1L,DRSC14860,-0.2,0.7,,
eIF2alpha,DRSC20327,1.9,1.7,,
Ant2,DRSC19330,-0.1,-0.4,,
CG14135,DRSC10140,-0.1,0,,
Tpc2,DRSC04322,-0.2,0.5,,
Pgant8,DRSC10801,-0.1,-0.1,,
scny,DRSC10509,-0.1,0.4,,
scny,DRSC10510,-0.1,-0.8,,

An excerpt taken from the entries so far:
Gene,amplicon,"z-score, replicate 1","z-score, replicate 2","z-score, replicate 3","z-score, replicate 4"
Ndc80,DRSC20221,-0.1,-0.2,,
nkd,DRSC11376,-0.2,-0.3,,
CG15482,DRSC02492,-0.2,-0.4,,
se,DRSC10713,-0.3,-0.2,,
CG7296,DRSC03042,-0.4,-0.8,-0.3,-0.5
Lrp4,DRSC20118,-0.4,-0.5,,
Snx17,DRSC02884,-0.3,-0.6,,
Prosalpha5,DRSC07514,-0.3,0.2,,
TBC1D23,DRSC00657,0.1,-0.3,,
